{"source": "patent US20230190797A1", "about": "“COMPOSITIONS AND METHODS FOR ADOPTIVE CELL THERAPY” (MEMORIAL SLOAN KETTERING CANCER CENTER, priority 2017, published 2023)", "system": "Skov-3", "assay": "Cytotoxicity, Skov-3", "type": "cell-based, human", "conditions": "Skov-3, prodrug versus AMS", "note": "For at least one compound, name, drawing or mass did not settle the structure.", "data": [{"smiles": "Nc1ncnc2c1ncn2[C@@H]1O[C@H](COS(=O)(=O)NCC2=C(C(=O)O)N3C(=O)[C@@H](NC(=O)Cc4cccs4)[C@H]3SC2)[C@@H](O)[C@H]1O", "note": "[ceph-AMS]", "values": [{"measurement": "Selective Index, Skov-3", "value": ".3.6"}]}]}
